The values that follow come from article PMC4807287.

Protein sequences, listed by entry. Tags and fused reporters are not part of them. Residues count along the entry.
UniProt P11021, residues 19-654: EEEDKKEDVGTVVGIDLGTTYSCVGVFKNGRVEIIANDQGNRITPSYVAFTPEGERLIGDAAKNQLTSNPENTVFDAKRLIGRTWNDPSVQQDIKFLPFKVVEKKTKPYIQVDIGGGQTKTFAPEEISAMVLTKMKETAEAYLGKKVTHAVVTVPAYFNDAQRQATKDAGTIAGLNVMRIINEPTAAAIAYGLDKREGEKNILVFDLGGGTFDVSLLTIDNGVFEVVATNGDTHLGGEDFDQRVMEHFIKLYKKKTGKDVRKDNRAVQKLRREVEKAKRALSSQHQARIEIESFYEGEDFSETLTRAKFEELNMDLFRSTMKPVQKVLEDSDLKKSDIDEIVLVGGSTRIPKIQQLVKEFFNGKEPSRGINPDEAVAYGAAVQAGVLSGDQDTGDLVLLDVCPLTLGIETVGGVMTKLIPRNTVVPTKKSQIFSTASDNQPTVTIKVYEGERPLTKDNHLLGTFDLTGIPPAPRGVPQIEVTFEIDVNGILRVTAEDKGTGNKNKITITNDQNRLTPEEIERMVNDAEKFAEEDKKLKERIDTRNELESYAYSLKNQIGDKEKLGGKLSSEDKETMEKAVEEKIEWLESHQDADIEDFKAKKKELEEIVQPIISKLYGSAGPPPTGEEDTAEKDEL
UniProt P27824, residues 21-592: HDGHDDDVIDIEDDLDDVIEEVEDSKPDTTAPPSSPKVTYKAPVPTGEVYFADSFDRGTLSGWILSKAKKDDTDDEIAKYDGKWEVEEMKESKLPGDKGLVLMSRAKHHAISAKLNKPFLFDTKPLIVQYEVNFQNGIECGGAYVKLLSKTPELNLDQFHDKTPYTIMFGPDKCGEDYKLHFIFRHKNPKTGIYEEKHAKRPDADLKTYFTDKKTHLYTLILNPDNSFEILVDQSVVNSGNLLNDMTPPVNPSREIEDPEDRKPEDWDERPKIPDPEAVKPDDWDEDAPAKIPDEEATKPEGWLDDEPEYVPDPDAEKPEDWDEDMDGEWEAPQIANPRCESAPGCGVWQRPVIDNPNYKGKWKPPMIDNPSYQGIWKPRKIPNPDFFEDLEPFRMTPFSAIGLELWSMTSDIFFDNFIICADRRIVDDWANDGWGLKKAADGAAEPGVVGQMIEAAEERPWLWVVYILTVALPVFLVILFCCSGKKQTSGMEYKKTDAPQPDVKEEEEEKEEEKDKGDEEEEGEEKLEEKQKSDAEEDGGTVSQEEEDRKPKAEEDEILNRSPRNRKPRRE
UniProt P13498: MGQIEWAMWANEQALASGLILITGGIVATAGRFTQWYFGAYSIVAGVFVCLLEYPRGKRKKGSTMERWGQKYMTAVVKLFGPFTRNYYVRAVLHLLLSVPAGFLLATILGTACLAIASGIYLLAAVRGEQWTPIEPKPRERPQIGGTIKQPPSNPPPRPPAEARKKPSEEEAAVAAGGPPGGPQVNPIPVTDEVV

Like-named read-outs stand apart in the source and are kept apart here. No constants are given. Whether binding was seen depends on the method and setting. In cells and extracts the contact can be indirect. A yes stands for co-enrichment or nearness to the bait. Other partners may have been found.

In assay [1] the target is T1, NADPH oxidase 4 (human NOX4), overexpressed in HEK293 cells (human) (UniProt Q9NPH5).
T1 sequence: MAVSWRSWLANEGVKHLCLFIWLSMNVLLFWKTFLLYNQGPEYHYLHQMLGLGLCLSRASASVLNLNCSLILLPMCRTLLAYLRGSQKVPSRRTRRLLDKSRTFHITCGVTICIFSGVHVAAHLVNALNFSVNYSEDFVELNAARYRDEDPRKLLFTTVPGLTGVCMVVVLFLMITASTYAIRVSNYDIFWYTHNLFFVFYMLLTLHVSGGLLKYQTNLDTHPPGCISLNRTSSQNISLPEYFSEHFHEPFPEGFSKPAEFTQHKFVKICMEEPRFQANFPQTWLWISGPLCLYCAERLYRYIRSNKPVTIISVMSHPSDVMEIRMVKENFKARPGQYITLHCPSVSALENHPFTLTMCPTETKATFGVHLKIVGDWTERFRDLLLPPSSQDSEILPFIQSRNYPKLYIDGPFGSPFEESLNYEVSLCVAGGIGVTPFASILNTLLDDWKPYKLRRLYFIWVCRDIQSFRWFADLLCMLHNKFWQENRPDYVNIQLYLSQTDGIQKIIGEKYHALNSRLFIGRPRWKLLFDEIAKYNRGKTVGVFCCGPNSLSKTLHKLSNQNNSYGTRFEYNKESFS
The assay is described as follows: affinity purification with mass spectrometry; quantitative SILAC-based Co-IP (qCo-IP): NOX4 antibody covalently linked to magnetic protein G beads; HEK293 (Ctl) and NOX4-HEK293 cells lysed with 1% digitonin (n = 2), or 100,000 x g total membranes solubilised with digitonin 6 g/g protein (n = 3); forward and reverse labelling; threshold log2 ratio >0.5.

Assay [2] addresses T1, NADPH oxidase 4 (human NOX4), overexpressed in HEK293 cells (human). The description is as above. This is another data set of the same source.

As to “78-kDa glucose-regulated protein (HSPA5/Grp78), endogenous in HEK293 cells (from UniProt P11021 19-654)”, the binding entry in assay [1] is recorded as “binds”.
Still for that read-out and setting: then “Calnexin, endogenous in HEK293 cells (from UniProt P27824 21-592)”, with “binds”; and “SERCA2b/ATP2A2 (sarco/endoplasmic reticulum Ca2+-ATPase 2b), endogenous in HEK293 cells (from UniProt P16615-1 1-1042)”, with “binds”; and “p22phox/CYBA, endogenous in HEK293 cells (from UniProt P13498 1-195)”, with “binds”.

B1: Calmegin (CLGN), endogenous in HEK293 cells (protein, UniProt O14967 20-610)
chain: EFMDDDVETEDFEENSEEIDVNESELSSEIKYKTPQPIGEVYFAETFDSGRLAGWVLSKAKKDDMDEEISIYDGRWEIEELKENQVPGDRGLVLKSRAKHHAISAVLAKPFIFADKPLIVQYEVNFQDGIDCGGAYIKLLADTDDLILENFYDKTSYIIMFGPDKCGEDYKLHFIFRHKHPKTGVFEEKHAKPPDVDLKKFFTDRKTHLYTLVMNPDDTFEVLVDQTVVNKGSLLEDVVPPIKPPKEIEDPNDKKPEEWDERAKIPDPSAVKPEDWDESEPAQIEDSSVVKPAGWLDDEPKFIPDPNAEKPDDWNEDTDGEWEAPQILNPACRIGCGEWKPPMIDNPKYKGVWRPPLVDNPNYQGIWSPRKIPNPDYFEDDHPFLLTSFSALGLELWSMTSDIYFDNFIICSEKEVADHWAADGWRWKIMIANANKPGVLKQLMAAAEGHPWLWLIYLVTAGVPIALITSFCWPRKVKKKHKDTEYKKTDICIPQTKGVLEQEEKEEKAALEKPMDLEEEKKQNDGEMLEKEEESEPEEKSEEEIEIIEGQEESNQSNKSGSEDEMKEADESTGSGDGPIKSVRKRRVRKD
As for B1, the binding entry in assay [2] is listed as “binds”.
